About 210 (0.4%) of roughly 52,000 sequences were called active.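 How the source made its calls: active means gene whose silencing raises cell survival under the drug, median off-target-corrected z-score across its silencing RNAs 2 or more; inactive means the rest.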 The list shows a part of the results.
Assay: Resistance to Poly (ADP-Ribose) Polymerase inhibitor: Gene Identification via Genome-wide siRNA Screen
Conditions: mouse BRCA2 R2336H ES cells, olaparib, CellTiter-Glo viability; hits give high values
Summary of the method: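 Mouse BRCA2 R2336H ES cells were reverse-transfected with siRNA (20 nM final), treated at 48 h with 500 nM olaparib, and read by CellTiter-Glo after 72 h. Scores: MAD-based z per siRNA, median per gene, seed off-target correction.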

Sequence	z-score
GGCAAAAAGACUUUGAUAUTT against Dnajc1	inactive: 0.675
GCAUCAGUAGAAACCCACATT against 1700001D09Rik	inactive: 1.63
GGGAGACAACCAAAGUGAATT against Cngb3	inactive: -1.44
GGCCUUCAAUCACCUAGAGTT against Pde6g	active: 2.23
CCACGGUUUCAUUUACUAATT against Tm7sf3	inactive: -0.188
CCACAUGAUGUAAAACUUATT against P4ha1	inactive: 0.474
GGAGGUAGGAAAGUGGAUCTT against Gdi1	inactive: -0.316
GGAUUUAUUAGCCUACCUUTT against Catna2	inactive: -0.436
CCCAUGGAUUGGCAAGUUGTT against Sat1	inactive: -0.305
GGUACUGUGUUCUGUCUGCTT against B230325K18Rik	inactive: 0.675
ACAGGCAAGAUGAGAGCGATT against Cutl1	inactive: -1.34
GGCCUUCACUAAGAGACGATT against C130073F10Rik	inactive: 0.0405
CCAUUAUGAGUGUGUUAAATT against Npc1	inactive: -0.947
GGAUGAAGAAGAUGAAGAUTT against D030028O16Rik	inactive: -3.25
CCGACAUCCUUGAUACGUUTT against 9030624J02Rik	inactive: 0.646
GUUGUGGUAUCUUGGGCAGTT against Olfr1217	inactive: -0.478
GGAUUAUUACAUCGAGCUUTT against Idi1	inactive: -0.934
GGCGACCACUUUGUCUACATT against BC030417	inactive: 0.283
GGCCAUGGAGAACAUAUGCTT against Trpm8	inactive: 0.103
GGAGUGUGUGCUGUCAGAATT against Nr1h3	inactive: 0.225
GGAGAGAUCAUACACUUUGTT against LOC210321	inactive: -0.255
GCUAUACGCUCAAGCUAAATT against Fbxl8	inactive: 3.3
GGAUCUUUGAUAGUUGAGATT against Hspd1	inactive: -0.876
GCUUACUUUGGAACACAAATT against Tex18	inactive: 0.719
GGUGGACAAGCAAGUCUAGTT against B230113M03Rik	inactive: -2.14
GGAUUUGCAAAGCCCAGUCTT against 6720457D02Rik	inactive: 1.92

Sequence	z-score
GUGAGAACAAACAGAUAAUTT against V1rc21	inactive: 0.458
GGGUGUCUUCUUGAACUGGTT against A930010E21Rik	inactive: -0.135
GGAGGAAUACGUAUACUUCTT against B230399E16Rik	inactive: -1.02
GCCUAAUGAUUGCAUCCUATT against Flj39647	inactive: 1.44
GGCCUUCCUUUUCUAUAGATT against Foxd2	inactive: 0.312
GACCAGAUUCUUACUUUGGTT against Olfr9	inactive: -1.63
GGAAAAUCUUAGGAAGAUGTT against Elf4	inactive: 1.43
GGUUGGUACAUUGUGACCUTT against 1110060F11Rik	inactive: 0.407
CCAGGAAUAGAUAAACUCUTT against Olfr120	inactive: -1.58
GCCUUUGUGUUACAAUAUGTT against Plekhc1	inactive: -1.17
CCAAAUAGAGAGCCUAAAUTT against Loxl2	inactive: -0.68
GCCCGUUACUAUUGUUGAGTT against Incenp	inactive: -2.31
CCUACCAUACCAUGAGCAGTT against Pou4f3	inactive: 0.754
GGAGAGCACCGAUGAAAAUTT against Mcam	inactive: 0.541
GGUUAGGCACAAAUAAGUUTT against B230206H07Rik	inactive: -0.771
CCAAGAUGCACAGUGAUAATT against Pknox2	inactive: -0.434
GGCUCUGAAUAAACUCCUCTT against Olfr1013	inactive: -0.531
GGAAAGCAAAAAAAACUGUTT against Tnfaip8	inactive: 0.788
GGCCUCCUCUCACAAGUAUTT against Tubb3	inactive: -0.184
GCAGAUUCGCUGCCUGAUGTT against Snapc4	inactive: 0.0254
GGCUCAACGGGAUUACUUUTT against Pgd	inactive: -0.592
GCCUGUAAUCCCAUCAUCUTT against Taar5	inactive: -0.000944
GGAUAUCAUUUCAUCUUGUTT against Hist1h3f	inactive: 2.21
CCUCCUGCCACAUUCUUUCTT against AU022252	inactive: -0.783
GGGCACCUAUUCAGAUACCTT against Mtap2	inactive: 0.64
GGUACUCAAUGCAAGAAAUTT against 1500041J02Rik	inactive: 0.35

Sequence	z-score
CCAGUUACUAUGAGAAUGUTT against Yars	inactive: 0.247
GGGUGACUGGAAUGACAUCTT against Galnt2	inactive: 0.215
GGCUGUAUUUGGACAAAGCTT against Nxt2	inactive: -1.63
GCAACACAAACACUGGCUATT against D930020B18Rik	inactive: -1.99
CGCCUCAUCAUCUCGAUUCTT against Cnga3	inactive: -0.593
GGCAAUAUGAAGGAGGUUUTT against Ckm	inactive: -1.64
GGUUUCUUAGAUUAGCUAGTT against Map3k12	inactive: 1.25
GGAUAACAUAACUUUGGAUTT against D19Ertd737e	inactive: 1.28
GGUCAACACCUUAGAAACUTT against Lyn	inactive: -1.05
GCCCUCCGAGAAAAACAUCTT against Gjb5	inactive: 0.324
CCUACUGGAAAAGAUAAUUTT against Stfa1	inactive: 0.692
GUUGAGGACUUCUUGCUGGTT against Cmar	inactive: -1.03
GCAAAACAGAAUCAUCCUCTT against Taar6	inactive: 1.49
GGAAUUUAUGGAUAGAGGATT against BC026432	inactive: -0.0536
GCUACUGCAUUCUCUAUCATT against 1700029I08Rik	inactive: 0.509
CGGCUGCAUUUCAACAAGGTT against Snrp1c	inactive: -2.59
CGGCGAGUUCAGAAACAGCTT against Dab2ip	inactive: 1.1
GCUAUGUAACACACCGCUGTT against AW046014	inactive: 1.61
GGAUGUCAGUAAUCAAUAGTT against Oxct1	inactive: 0.26
GGUAACUUUGAACUGAUCCTT against 1700030J22Rik	inactive: 0.77
GGAUCUAUGACAAAAGAAGTT against Snx5	inactive: 0.335
CGCUCAAAAAUGGAUUCAATT against C130052G03Rik	inactive: 1.27
CCAGAACGAAUCCCACUGUTT against Cklfsf8	inactive: -2.47
CCAGAACUAGCAAUAAAUATT against Noxa1	inactive: 0.0574
GGUGCUUGGGAAUUUUGAUTT against Gpsm2	inactive: -0.908
GGUCAAGCUCUUCUGCCUCTT against 6330414G21Rik	inactive: -0.832

Sequence	z-score
GGCUCUUCAACCUCUUACUTT against Ddost	inactive: 0.402
GGAGAGAUGCCUUUUAAGUTT against 5730403M16Rik	inactive: 0.0441
CUCGCUAGAGAAAGACAGATT against Olfr111	inactive: -1.18
GGGUUCGAUGUUGAAAAAGTT against Lzic	inactive: -0.876
GGGAGAGGACCUCAAUGAATT against Mobk1b	inactive: 1.98
GCAACCGCGUCACAUUGAATT against Bicc1	inactive: 0.124
GCAGAUGGCACAAUAUGAATT against Ppy	inactive: -0.258
GCUCAUACCUAUCUCAAGGTT against Tnfsf9	inactive: 0.63
GGUGGAAGUCUCCAAGACATT against Tatdn1	inactive: 0.948
GGGAAUGUUCUAUAACUCATT against Prep	inactive: 0.417
GGCAUCUCUCCAAUAACCUTT against Fbxw2	inactive: -0.731
GGACAUAGCAUCUUCACUUTT against Mpp3	inactive: -0.506
CGACCUGUGGGAAGAUAUUTT against Apoa5	inactive: 0.999
CCAACAUCUGCGUGUUUGCTT against 2810055F11Rik	inactive: -0.0242
GCAUGUCCUCUAUCUUCUCTT against V1rh8	inactive: -1.22
GGAAGAGCACCUCCAGUCATT against Zfp313	inactive: -2.84
GGUAUCAUGAUCACUGUUUTT against Slc30a8	inactive: 1.05
CGAGAAUCUGCCUCAAUUGTT against 1110001A12Rik	inactive: 0.417
GGAUAUACAUCUGAAGAUGTT against 4930548G07Rik	inactive: 0.5
GGAAGACAGAAAUGAAGAUTT against Enah	inactive: -1.33
GGCCAAAGAAGAAAGUGACTT against Opn3	inactive: -0.692
GGUCAGUGACAUUAUCAAUTT against V1rf3	inactive: 2.02
ACCGGAUCCAUUCACCUACTT against Fxyd1	inactive: 0.186
GGCUAAUAGACUUAUUAGGTT against 5730403B10Rik	inactive: 0.736
GGUCCAAUUUUAUAACAGUTT against Dmtf1	inactive: 0.683
CCGUAUCAUUUCACUGCUCTT against Abca16	inactive: 1.25

— PubChem BioAssay AID1347423 (Functional Genomics Laboratory (NCATS/FGL), 2020)
